PubChem BioAssay AID504804 – Drosophila RNAi Screening Center, 2011
The screen tested about 19,000 reagents; this is a random part of those with a known target gene and a result. Over the whole deposit, 47 (0.25%) are marked active. 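Signals are raw, not normalised; exact z-scores behind calls not deposited; actives needed confirmation, so some wells reaching 2 SD are inactive.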 Reagents against one gene are numbered here. A plus sign joins genes that one reagent is predicted to hit. No sequences are given here.

- Assay: 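Knock-downs shielding fly cells from apoptosis caused by DNA damage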 (primary screen)
- Cells: Drosophila Kc cells
- Reagent: long dsRNA against Drosophila genes, 0.5 µg dsRNA per well
- Duration: 96 h (48 h knock-down, then 48 h drug)
- Conditions: doxorubicin 5 µg/ml for 48 h, added 48 h after dsRNA
- Measurement: 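Viability measured as cellular ATP by luminescence after 48 h knock-down then 48 h doxorubicin at 5 µg/ml; unnormalised plate counts for each replicate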
- Reading the numbers: raw ATP luminescence: higher = more viable cells, protection from doxorubicin
- Active means: 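z-score of 2 or more over plate mean in both duplicates, retained only when retests and separate dsRNAs confirm the protection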

gene	dsRNA no.	raw ATP luminescence, replicate 1	raw ATP luminescence, replicate 2	activity call
alc	1	54190	74320	inactive
Taf12L	1	22063	24657	inactive
CG31441	1	53770	56260	inactive
mms4	1	30963	82893	inactive
Sytbeta	1	33000	37803	inactive
Sytbeta	2	57613	56680	inactive
ver	1	67930	60850	inactive
Prosalpha6	1	34370	47723	inactive
CG8441	1	66553	72333	inactive
Srp14	1	58330	66890	inactive
CG8060	1	71880	54953	inactive
CG4218	1	47537	69447	inactive
Sgs1	1	21477	27800	inactive
Sgs1	2	2.61e5	3.12e5	inactive
Hinfp	1	42390	41380	inactive
SsRbeta	1	21877	24270	inactive
CG15529	1	51130	55550	inactive
CG8950	1	68560	72450	inactive
ast	1	1.09e5	97960	inactive
dos	1	42893	1.59e5	inactive
CG10516	1	38457	44467	inactive
Tsr1	1	19837	22713	inactive
CG31296	1	2.05e5	1.91e5	inactive
Galphaq	1	60700	58823	inactive
CG3349	1	1.04e5	75060	inactive
Polr1H	1	50290	62057	inactive
DAAM	1	1.13e5	1.48e5	inactive
CG13123	1	40063	63087	inactive
CG33268	1	64257	60033	inactive
CG15373	1	3.65e5	3.39e5	inactive
mesh	1	1.81e5	1.61e5	inactive
mesh	2	53430	49430	inactive
mesh	3	49450	48380	inactive
Ir68b	1	98923	74200	inactive
CG5776	1	1.11e5	94100	inactive
Prx6c	1	47987	91703	inactive
karr	1	2.93e5	2.98e5	inactive
Ir51b	1	81690	86043	inactive
IntS3	1	2.88e5	3.37e5	inactive
mRRF1	1	34307	42627	inactive
Targ3	1	48543	79067	inactive
Faf2	1	92030	64960	inactive
CR18228	1	57257	58680	inactive
wal	1	71563	65160	inactive
CG9391	1	59037	52350	inactive
CG6733	1	1.09e5	89120	inactive
Sox14	1	56790	65937	inactive
Npc2g	1	68930	54290	inactive
yellow-h	1	50040	64720	inactive
cag	1	40853	79027	inactive
Tif-IA	1	50860	59313	inactive
Tif-IA	2	48507	45980	inactive
CG13712	1	78030	81940	inactive
scyl	1	87783	83530	inactive
Osi9	1	1.86e5	1.82e5	inactive
CG18808	1	93290	81800	inactive
betaNACtes4	1	4.05e5	3.69e5	inactive
CG30487	1	75810	84870	inactive
CG9775	1	19760	28340	inactive
Chi	1	58030	55307	inactive
CG31777	1	2.11e5	2.36e5	inactive
CG33229	1	1.27e5	79783	inactive
CG15676	1	64767	68373	inactive
Usf	1	33890	36290	inactive
bol	1	1.60e5	1.52e5	inactive
bol	2	64710	71243	inactive
bol	3	54560	85437	inactive
CG6834	1	56490	53450	inactive
IleRS-m	1	70850	76273	inactive
CG15841 (retired record) + Acp33A	1	37590	75660	inactive
CG15696	1	60300	58900	inactive
sba	1	33243	40450	inactive
sba	2	57570	52210	inactive
CG3339	1	2.20e5	1.94e5	inactive
CG3339	2	53710	40310	inactive
Acox57D-d	1	88773	63973	inactive
caly	1	72307	50620	inactive
PyK	1	67910	42130	inactive
Ku80	1	64593	70323	inactive
Gasp	1	1.03e5	37807	inactive
DIP-kappa	1	2.26e5	1.92e5	inactive
DIP-kappa	2	3.27e5	2.74e5	inactive
CG10996	1	2.67e5	2.76e5	inactive
CR14033	1	1.00e5	78203	inactive
CG10597	1	2.15e5	2.52e5	inactive
Rsf1	1	38377	58527	inactive
betaTub60D	1	52310	52593	inactive
Bet5	1	32860	36460	inactive
CG1827	1	46310	39183	inactive
Gbeta76C	1	28757	28220	inactive
HDAC11	1	62550	61140	inactive
Gr39a	1	42797	39127	inactive
Gr39a	2	63853	49743	inactive
CG34230	1	87473	98067	inactive
CG44098	1	72820	55410	inactive
CG44098	2	64630	68843	inactive
Use1	1	59703	70927	inactive
CG18596	1	43303	35907	inactive
Sbds	1	43733	39847	inactive
Rad60	1	72960	68860	inactive
CG14400	1	70750	63017	inactive
CG14606	1	70430	75793	inactive
CG5043	1	70430	69107	inactive
ninaD	1	67100	63807	inactive
Gem2	1	28297	22440	inactive
CG4891	1	87543	79480	inactive
CG12729	1	48790	37700	inactive
